Assay [1] deals with T1, GFP-tagged HELQ (U2OS) (human) (UniProt Q8TDG4).
T1 sequence: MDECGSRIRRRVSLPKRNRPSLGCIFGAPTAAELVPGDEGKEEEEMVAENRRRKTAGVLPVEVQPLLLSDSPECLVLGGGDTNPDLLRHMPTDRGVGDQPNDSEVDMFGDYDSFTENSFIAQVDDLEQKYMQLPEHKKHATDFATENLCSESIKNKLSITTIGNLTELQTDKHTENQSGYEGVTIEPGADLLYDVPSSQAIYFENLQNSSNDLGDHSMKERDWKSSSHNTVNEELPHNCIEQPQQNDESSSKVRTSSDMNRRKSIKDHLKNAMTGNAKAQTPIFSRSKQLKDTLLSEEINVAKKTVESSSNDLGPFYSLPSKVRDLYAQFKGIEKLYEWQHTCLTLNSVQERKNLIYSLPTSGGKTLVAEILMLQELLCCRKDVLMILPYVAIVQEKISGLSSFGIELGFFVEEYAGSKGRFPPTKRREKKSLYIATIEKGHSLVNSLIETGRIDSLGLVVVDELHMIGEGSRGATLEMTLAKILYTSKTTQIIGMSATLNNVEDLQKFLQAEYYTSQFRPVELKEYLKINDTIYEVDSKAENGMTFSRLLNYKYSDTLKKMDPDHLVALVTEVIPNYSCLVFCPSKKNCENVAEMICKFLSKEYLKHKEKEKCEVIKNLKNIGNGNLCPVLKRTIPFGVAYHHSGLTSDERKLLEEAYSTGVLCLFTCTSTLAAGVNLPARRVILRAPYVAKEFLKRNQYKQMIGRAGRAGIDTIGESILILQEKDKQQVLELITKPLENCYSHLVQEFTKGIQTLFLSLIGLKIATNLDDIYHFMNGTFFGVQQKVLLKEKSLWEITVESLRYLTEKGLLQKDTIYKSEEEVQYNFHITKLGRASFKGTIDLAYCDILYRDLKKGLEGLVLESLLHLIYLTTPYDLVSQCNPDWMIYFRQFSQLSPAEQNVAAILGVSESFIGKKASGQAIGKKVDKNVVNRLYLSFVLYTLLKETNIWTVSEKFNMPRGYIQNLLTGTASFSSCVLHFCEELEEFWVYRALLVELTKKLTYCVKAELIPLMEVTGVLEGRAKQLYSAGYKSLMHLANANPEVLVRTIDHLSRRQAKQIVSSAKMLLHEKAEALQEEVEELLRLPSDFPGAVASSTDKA
The assay can be described thus: co-IP; U2OS co-transfected; whole-cell extract; anti-GFP agarose; immunoblotting (Supplementary Fig. S2). In general terms: In western blotting, separated proteins are transferred to a membrane and probed.

Assay [2] concerns the target T2, FLAG-HA epitope-tagged XRCC2 (UniProt O43543).
T2 sequence: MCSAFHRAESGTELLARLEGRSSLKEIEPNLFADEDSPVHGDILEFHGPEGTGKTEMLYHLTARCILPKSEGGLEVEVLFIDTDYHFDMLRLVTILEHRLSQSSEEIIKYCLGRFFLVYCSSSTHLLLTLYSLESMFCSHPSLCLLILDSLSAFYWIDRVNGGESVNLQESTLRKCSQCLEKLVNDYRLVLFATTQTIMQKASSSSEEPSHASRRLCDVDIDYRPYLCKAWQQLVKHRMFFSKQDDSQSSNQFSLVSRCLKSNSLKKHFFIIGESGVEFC
Nature of the assay: co-IP; FLAG-HA-tagged bait stably expressed in HeLa S3; sequential anti-FLAG and anti-HA immunoprecipitation from nuclear extract; immunoblotting with specific antibodies; for HELQ with or without MMC (100 ng/ml, 18 h) and with or without Benzonase (50 U/ml).

No constants are given. Whether binding was seen depends on the method and setting. Binding seen in cells or lysates may run through a third protein. Some binding calls cover weakened binding; strength is not graded here. Where a sequence is shown, tags or fusion partners need not be part of it.

B1: DsRed-Monomer-tagged RAD51B (U2OS) (protein, UniProt O15315 1-384)
chain: MGSKKLKRVGLSQELCDRLSRHQILTCQDFLCLSPLELMKVTGLSYRGVHELLCMVSRACAPKMQTAYGIKAQRSADFSPAFLSTTLSALDEALHGGVACGSLTEITGPPGCGKTQFCIMMSILATLPTNMGGLEGAVVYIDTESAFSAERLVEIAESRFPRYFNTEEKLLLTSSKVHLYRELTCDEVLQRIESLEEEIISKGIKLVILDSVASVVRKEFDAQLQGNLKERNKFLAREASSLKYLAEEFSIPVILTNQITTHLSGALASQADLVSPADDLSLSEGTSGSSCVIAALGNTWSHSVNTRLILQYLDSERRQILIAKSPLAPFTSFVYTIKEEGLVLQETTFCSVTQAELNWAPEILPPQPPEQLGLQMCHHTQLIF
On to B1, for which the binding result in assay [1] is “binds”.

B2: HELQ (endogenous, HeLa S3) (enzyme, UniProt Q8TDG4 1-1101)
chain: MDECGSRIRRRVSLPKRNRPSLGCIFGAPTAAELVPGDEGKEEEEMVAENRRRKTAGVLPVEVQPLLLSDSPECLVLGGGDTNPDLLRHMPTDRGVGDQPNDSEVDMFGDYDSFTENSFIAQVDDLEQKYMQLPEHKKHATDFATENLCSESIKNKLSITTIGNLTELQTDKHTENQSGYEGVTIEPGADLLYDVPSSQAIYFENLQNSSNDLGDHSMKERDWKSSSHNTVNEELPHNCIEQPQQNDESSSKVRTSSDMNRRKSIKDHLKNAMTGNAKAQTPIFSRSKQLKDTLLSEEINVAKKTVESSSNDLGPFYSLPSKVRDLYAQFKGIEKLYEWQHTCLTLNSVQERKNLIYSLPTSGGKTLVAEILMLQELLCCRKDVLMILPYVAIVQEKISGLSSFGIELGFFVEEYAGSKGRFPPTKRREKKSLYIATIEKGHSLVNSLIETGRIDSLGLVVVDELHMIGEGSRGATLEMTLAKILYTSKTTQIIGMSATLNNVEDLQKFLQAEYYTSQFRPVELKEYLKINDTIYEVDSKAENGMTFSRLLNYKYSDTLKKMDPDHLVALVTEVIPNYSCLVFCPSKKNCENVAEMICKFLSKEYLKHKEKEKCEVIKNLKNIGNGNLCPVLKRTIPFGVAYHHSGLTSDERKLLEEAYSTGVLCLFTCTSTLAAGVNLPARRVILRAPYVAKEFLKRNQYKQMIGRAGRAGIDTIGESILILQEKDKQQVLELITKPLENCYSHLVQEFTKGIQTLFLSLIGLKIATNLDDIYHFMNGTFFGVQQKVLLKEKSLWEITVESLRYLTEKGLLQKDTIYKSEEEVQYNFHITKLGRASFKGTIDLAYCDILYRDLKKGLEGLVLESLLHLIYLTTPYDLVSQCNPDWMIYFRQFSQLSPAEQNVAAILGVSESFIGKKASGQAIGKKVDKNVVNRLYLSFVLYTLLKETNIWTVSEKFNMPRGYIQNLLTGTASFSSCVLHFCEELEEFWVYRALLVELTKKLTYCVKAELIPLMEVTGVLEGRAKQLYSAGYKSLMHLANANPEVLVRTIDHLSRRQAKQIVSSAKMLLHEKAEALQEEVEELLRLPSDFPGAVASSTDKA
B2: in assay [2], the binding result is “binds”.

The record behind these values is publication PMC3778836.
